Assay results reported in the supplement of paper PMC7666118.
This is one part of the list.

Amino acid sequences for entries named in this document (tags omitted). A change or cut given only in a name is not applied to a line headed by its entry.
UniProt Q9H3H5: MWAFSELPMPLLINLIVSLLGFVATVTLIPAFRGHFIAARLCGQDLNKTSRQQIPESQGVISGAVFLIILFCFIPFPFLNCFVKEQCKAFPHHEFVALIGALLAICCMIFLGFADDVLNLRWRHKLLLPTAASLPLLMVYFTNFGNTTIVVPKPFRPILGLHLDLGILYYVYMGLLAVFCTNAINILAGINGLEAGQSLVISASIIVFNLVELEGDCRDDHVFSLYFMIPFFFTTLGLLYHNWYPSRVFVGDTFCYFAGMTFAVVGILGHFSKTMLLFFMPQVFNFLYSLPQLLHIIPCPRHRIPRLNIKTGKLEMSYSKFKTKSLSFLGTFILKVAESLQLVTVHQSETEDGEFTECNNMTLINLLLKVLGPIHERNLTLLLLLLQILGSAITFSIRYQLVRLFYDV
UniProt P32929, whole entry: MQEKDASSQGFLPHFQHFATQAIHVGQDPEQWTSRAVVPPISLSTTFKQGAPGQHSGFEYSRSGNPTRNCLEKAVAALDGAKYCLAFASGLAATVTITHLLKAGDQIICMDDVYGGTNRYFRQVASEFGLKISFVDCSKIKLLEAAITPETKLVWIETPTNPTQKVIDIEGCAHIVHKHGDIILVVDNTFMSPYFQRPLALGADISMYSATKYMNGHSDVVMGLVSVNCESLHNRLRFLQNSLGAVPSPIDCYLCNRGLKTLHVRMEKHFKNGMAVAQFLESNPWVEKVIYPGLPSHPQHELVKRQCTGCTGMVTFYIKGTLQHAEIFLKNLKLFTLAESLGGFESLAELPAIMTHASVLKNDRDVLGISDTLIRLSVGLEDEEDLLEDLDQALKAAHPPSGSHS
UniProt P11182, whole entry: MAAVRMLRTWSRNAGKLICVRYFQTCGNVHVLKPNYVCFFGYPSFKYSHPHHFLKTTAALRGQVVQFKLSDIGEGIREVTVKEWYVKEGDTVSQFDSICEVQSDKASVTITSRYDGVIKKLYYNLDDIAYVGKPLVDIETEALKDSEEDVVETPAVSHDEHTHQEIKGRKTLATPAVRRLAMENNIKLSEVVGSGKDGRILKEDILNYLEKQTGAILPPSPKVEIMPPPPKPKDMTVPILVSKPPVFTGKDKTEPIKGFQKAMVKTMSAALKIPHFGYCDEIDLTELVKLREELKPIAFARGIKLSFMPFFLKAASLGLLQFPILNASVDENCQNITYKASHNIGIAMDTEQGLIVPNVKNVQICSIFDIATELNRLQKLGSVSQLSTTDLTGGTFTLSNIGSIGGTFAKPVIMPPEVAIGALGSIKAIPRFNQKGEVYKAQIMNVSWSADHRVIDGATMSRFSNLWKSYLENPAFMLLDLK
UniProt Q9UDY4: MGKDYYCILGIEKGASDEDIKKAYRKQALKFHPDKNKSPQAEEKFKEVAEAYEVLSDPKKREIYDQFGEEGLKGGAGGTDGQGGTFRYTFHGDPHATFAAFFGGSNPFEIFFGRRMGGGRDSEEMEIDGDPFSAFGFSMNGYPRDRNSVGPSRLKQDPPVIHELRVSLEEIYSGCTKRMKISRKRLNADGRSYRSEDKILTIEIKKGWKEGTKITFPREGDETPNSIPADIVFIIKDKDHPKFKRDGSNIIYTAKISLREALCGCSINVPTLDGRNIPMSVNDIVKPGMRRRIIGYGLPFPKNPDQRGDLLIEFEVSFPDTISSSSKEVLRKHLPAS
UniProt Q6ZPD9: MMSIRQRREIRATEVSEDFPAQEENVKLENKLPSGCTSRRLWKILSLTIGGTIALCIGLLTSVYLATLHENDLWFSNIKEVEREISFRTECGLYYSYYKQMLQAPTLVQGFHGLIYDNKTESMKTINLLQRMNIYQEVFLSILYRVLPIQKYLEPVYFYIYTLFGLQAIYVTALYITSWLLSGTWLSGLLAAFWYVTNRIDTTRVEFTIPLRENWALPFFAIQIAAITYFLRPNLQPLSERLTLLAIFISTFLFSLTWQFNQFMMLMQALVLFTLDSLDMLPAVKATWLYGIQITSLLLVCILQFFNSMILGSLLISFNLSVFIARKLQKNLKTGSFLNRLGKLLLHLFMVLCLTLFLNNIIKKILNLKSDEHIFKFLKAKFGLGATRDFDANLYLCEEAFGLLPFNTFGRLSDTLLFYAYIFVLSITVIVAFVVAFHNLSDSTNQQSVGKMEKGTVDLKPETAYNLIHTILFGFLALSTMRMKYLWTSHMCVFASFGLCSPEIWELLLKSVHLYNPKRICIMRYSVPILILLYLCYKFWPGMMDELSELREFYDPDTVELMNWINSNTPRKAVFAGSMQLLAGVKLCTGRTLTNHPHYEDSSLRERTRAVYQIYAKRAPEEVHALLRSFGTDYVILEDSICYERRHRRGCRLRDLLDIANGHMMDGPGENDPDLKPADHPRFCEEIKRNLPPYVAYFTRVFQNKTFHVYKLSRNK
UniProt P01040: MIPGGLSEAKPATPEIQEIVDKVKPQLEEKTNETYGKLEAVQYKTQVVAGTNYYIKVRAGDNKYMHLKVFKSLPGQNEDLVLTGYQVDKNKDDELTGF
UniProt Q96FC9: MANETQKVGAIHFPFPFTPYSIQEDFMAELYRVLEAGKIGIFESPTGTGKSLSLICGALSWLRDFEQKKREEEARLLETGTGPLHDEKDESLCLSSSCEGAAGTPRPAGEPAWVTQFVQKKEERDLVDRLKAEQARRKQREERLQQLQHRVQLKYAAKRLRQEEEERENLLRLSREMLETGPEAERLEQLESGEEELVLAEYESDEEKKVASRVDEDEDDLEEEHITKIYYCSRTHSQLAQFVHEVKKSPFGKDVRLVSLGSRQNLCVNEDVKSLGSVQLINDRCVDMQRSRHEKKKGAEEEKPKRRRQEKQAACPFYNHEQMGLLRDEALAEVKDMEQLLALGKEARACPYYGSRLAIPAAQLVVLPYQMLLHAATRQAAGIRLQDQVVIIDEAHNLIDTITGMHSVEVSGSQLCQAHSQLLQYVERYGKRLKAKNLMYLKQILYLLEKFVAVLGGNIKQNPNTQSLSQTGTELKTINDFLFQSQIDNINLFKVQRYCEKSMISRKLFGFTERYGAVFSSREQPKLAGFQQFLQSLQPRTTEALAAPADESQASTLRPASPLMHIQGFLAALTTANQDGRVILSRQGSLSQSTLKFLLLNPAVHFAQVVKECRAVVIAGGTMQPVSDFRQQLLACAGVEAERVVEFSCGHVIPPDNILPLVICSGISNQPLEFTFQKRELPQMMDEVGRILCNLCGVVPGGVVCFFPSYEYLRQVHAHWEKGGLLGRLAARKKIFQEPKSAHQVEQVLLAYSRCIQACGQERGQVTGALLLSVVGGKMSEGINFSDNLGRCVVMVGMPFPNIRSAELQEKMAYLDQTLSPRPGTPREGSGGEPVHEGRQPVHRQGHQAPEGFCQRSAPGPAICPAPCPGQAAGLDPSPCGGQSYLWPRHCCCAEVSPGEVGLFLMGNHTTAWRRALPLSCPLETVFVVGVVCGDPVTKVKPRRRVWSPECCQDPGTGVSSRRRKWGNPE
UniProt Q7Z449: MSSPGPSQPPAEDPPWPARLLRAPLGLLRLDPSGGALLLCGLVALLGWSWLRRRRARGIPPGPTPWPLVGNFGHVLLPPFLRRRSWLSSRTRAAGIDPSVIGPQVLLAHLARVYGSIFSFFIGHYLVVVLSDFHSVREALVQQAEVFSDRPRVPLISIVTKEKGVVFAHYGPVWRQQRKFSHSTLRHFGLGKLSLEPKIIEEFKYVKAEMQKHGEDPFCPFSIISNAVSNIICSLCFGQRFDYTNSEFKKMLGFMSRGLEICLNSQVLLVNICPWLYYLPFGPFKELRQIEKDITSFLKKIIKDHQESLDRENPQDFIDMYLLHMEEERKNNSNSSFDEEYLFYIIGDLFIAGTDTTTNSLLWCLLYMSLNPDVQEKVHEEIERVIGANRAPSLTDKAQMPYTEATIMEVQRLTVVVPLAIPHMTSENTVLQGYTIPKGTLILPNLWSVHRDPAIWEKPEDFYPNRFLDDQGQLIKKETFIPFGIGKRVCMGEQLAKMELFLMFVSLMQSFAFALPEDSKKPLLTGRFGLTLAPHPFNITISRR
UniProt Q02127: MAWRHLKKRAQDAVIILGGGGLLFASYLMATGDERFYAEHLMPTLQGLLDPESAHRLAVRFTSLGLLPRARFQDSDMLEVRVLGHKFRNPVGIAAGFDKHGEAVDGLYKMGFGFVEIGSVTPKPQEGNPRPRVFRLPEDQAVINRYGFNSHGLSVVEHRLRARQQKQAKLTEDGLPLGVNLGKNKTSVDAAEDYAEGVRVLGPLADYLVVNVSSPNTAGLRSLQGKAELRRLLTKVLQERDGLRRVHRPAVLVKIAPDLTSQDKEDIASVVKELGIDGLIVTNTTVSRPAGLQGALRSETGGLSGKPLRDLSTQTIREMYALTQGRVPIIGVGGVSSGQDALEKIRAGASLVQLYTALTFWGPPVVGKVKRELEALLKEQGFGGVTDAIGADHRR
UniProt O75165, whole entry: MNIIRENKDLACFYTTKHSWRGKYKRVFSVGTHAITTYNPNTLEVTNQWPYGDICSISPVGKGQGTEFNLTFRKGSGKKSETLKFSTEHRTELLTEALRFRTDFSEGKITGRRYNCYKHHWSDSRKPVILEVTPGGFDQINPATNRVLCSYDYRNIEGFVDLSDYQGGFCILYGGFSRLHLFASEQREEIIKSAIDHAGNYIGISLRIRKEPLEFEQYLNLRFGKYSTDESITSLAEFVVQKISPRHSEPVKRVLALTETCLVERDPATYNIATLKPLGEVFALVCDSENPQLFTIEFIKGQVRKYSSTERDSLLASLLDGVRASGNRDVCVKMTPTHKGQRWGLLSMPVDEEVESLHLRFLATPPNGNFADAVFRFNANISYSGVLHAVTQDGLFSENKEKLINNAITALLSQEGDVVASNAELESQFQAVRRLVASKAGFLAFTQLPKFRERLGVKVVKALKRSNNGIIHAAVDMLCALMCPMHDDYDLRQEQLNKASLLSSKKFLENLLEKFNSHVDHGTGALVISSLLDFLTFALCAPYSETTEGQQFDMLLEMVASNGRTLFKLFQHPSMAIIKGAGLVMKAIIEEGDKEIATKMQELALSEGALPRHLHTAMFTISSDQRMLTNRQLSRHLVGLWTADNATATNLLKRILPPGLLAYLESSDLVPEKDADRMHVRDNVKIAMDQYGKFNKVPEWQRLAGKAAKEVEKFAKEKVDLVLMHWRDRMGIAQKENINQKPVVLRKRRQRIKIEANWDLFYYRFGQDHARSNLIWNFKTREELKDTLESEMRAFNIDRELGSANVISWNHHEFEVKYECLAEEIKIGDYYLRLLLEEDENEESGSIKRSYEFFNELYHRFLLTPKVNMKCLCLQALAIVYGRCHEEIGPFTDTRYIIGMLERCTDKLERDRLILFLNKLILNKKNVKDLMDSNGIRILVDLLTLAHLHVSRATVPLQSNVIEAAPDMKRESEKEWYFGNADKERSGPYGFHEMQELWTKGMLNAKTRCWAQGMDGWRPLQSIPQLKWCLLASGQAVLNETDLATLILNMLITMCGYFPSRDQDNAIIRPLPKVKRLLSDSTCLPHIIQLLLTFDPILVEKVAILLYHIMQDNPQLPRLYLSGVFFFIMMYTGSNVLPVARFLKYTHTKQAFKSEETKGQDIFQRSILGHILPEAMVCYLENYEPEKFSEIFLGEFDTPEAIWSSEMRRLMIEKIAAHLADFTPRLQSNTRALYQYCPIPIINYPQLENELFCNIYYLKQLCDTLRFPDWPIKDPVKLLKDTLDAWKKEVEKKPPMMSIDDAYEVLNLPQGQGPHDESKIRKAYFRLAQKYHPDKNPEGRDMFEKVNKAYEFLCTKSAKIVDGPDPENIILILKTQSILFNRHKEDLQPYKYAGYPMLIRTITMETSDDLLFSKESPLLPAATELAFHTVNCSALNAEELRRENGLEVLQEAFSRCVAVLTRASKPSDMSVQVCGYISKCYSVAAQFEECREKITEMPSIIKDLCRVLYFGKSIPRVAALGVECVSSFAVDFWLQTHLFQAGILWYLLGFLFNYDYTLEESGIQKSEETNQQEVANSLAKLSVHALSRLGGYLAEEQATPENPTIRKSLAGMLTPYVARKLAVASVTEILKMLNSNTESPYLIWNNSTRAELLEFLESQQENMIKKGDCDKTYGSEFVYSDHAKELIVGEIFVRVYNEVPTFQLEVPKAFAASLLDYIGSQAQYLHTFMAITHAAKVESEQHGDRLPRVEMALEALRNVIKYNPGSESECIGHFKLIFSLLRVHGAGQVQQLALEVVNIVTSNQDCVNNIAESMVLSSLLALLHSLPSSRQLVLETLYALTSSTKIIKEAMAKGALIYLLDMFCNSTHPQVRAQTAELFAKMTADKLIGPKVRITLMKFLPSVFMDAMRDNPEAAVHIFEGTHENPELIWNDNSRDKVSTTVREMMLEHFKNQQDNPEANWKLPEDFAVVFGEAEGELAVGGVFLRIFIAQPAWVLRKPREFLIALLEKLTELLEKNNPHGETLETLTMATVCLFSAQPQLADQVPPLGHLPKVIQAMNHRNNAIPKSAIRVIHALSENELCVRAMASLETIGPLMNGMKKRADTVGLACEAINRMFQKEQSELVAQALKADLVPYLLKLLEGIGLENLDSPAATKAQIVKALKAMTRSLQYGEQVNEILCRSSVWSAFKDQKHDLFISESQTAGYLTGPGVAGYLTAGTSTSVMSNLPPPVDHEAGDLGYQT

Compound: COc1ccc(Cn2ccc3cc(C)c(C(=O)NO)cc32)cc1
Test: dose-dependent thermal stabilisation call (2D-TPP, DLPTP, 10% FDR) (binary (1 = stabilised)); higher = stabilised by the compound
Details: system: HL-60 intact cells; concentration range 0.04-10 µM
Experimental: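 2D thermal proteome profiling in intact HL-60 cells treated with BRD-3811 (0, 0.04, 0.29, 2, 10 uM) for 90 min at 37 C, then heated 3 min at one of 12 temperatures (42-63.9 C). Soluble protein was quantified by TMT10 MS. The value is the DLPTP call of the paper: dose-dependent thermal stabilisation over all temperatures at 10% FDR (F-test of a dose-response against a flat model); one experiment, one call per tested protein.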

Row | Target | dose-dependent thermal stabilisation call
1 | DDX42 (UniProt Q86XP3) | inactive: 0
2 | CTPS (UniProt P17812) | inactive: 0
3 | DPAGT1 (UniProt Q9H3H5) | inactive: 0
4 | CXCR4 (UniProt P61073) | inactive: 0
5 | DENND3 (UniProt A2RUS2) | inactive: 0
6 | DHX8 (UniProt Q14562) | inactive: 0
7 | CTH (UniProt P32929) | inactive: 0
8 | CSTB (UniProt P04080) | inactive: 0
9 | CTSC (UniProt P53634) | inactive: 0
10 | DHRS7B (UniProt Q6IAN0) | inactive: 0
11 | DAK (UniProt Q3LXA3) | inactive: 0
12 | CYTSA (UniProt Q69YQ0) | inactive: 0
13 | DEPDC5 (UniProt O75140) | inactive: 0
14 | DBT (UniProt P11182) | inactive: 0
15 | DNAJC14 (UniProt Q6Y2X3) | inactive: 0
16 | DIAPH3 (UniProt Q9NSV4) | inactive: 0
17 | DNAJB4 (UniProt Q9UDY4) | inactive: 0
18 | DARS2 (UniProt Q6PI48) | inactive: 0

Random excerpt: 2 entries already listed.
Row | Target | dose-dependent thermal stabilisation call
5 | DENND3 (UniProt A2RUS2) | inactive: 0
1 | DDX42 (UniProt Q86XP3) | inactive: 0

More records follow.

Row | Target | dose-dependent thermal stabilisation call
19 | DNAJC10 (UniProt Q8IXB1) | inactive: 0
20 | DPY19L3 (UniProt Q6ZPD9) | inactive: 0
21 | DHX15 (UniProt O43143) | inactive: 0
22 | DENND4C (UniProt Q5VZ89) | inactive: 0
23 | DPP8 (UniProt Q6V1X1) | inactive: 0
24 | CSTA (UniProt P01040) | inactive: 0
25 | DMXL2 (UniProt Q8TDJ6) | inactive: 0
26 | DDX55 (UniProt Q8NHQ9) | inactive: 0
27 | DDX11 (UniProt Q96FC9) | inactive: 0
28 | DCBLD1 (UniProt Q8N8Z6) | inactive: 0
29 | DGCR2 (UniProt P98153) | inactive: 0
30 | DPH1 (UniProt Q9BZG8) | inactive: 0
31 | DDHD2 (UniProt O94830) | inactive: 0
32 | CYP2U1 (UniProt Q7Z449) | inactive: 0
33 | CTNNBL1 (UniProt Q8WYA6) | inactive: 0
34 | DHODH (UniProt Q02127) | inactive: 0
35 | CYB5B (UniProt O43169) | inactive: 0
36 | DNAJC13 (UniProt O75165) | inactive: 0
